Laboratory results published in patent US12409199B2, “Methods of treating endometriosis and other noncancer gynecological disorders with hemp extract” (Ecofibre USA Inc., priority 2021, dated 2025).
At least one structure is not confirmed: it was looked up by name or label, or the drawing left a doubt.

Test system: stage IV chemoresistant endometrial cancer with metastatic disease
Test: Treatment of a patient with stage IV chemoresistant endometrial cancer, PET/CT follow up
Conditions: before cannabis extract treatment
Source text: Soon after the experiments detailed above a person came to us. They were initially diagnosed with endometriosis, and later diagnosed with endometrial cancer after presenting with significant pain and discomfort. They had already undergone a total hysterectomy and bilateral salpingo-oophorectomy followed by five rounds of chemotherapy. Each of the first five rounds of chemotherapy was a combined chemotherapy with Paclitaxil/Carboplatin.
See, Tables 1 and 2, below. […] As such, […] began standard protocol GemCap treatment in combination with a regime of 30 mg of BSHE twice daily via oral mucosal delivery and 75 mg of FSHE once daily via intravaginal delivery.

CCN1CCN(Cc2ccc(Nc3ncc(F)c(-c4cc(F)c5nc(C)n(C(C)C)c5c4)n3)nc2)CC1 [Abemaciclib]
clinical outcome of earlier therapy: failed
